In the test the target is Chd1-Flag (knock-in) (mouse) (UniProt P40201). In words: affinity purification with mass spectrometry.

The chains behind the UniProt entries cited, without tags or fusion partners. Where a name states a change or a piece, a line headed by the entry shows the natural chain unless it says otherwise.
UniProt P40201: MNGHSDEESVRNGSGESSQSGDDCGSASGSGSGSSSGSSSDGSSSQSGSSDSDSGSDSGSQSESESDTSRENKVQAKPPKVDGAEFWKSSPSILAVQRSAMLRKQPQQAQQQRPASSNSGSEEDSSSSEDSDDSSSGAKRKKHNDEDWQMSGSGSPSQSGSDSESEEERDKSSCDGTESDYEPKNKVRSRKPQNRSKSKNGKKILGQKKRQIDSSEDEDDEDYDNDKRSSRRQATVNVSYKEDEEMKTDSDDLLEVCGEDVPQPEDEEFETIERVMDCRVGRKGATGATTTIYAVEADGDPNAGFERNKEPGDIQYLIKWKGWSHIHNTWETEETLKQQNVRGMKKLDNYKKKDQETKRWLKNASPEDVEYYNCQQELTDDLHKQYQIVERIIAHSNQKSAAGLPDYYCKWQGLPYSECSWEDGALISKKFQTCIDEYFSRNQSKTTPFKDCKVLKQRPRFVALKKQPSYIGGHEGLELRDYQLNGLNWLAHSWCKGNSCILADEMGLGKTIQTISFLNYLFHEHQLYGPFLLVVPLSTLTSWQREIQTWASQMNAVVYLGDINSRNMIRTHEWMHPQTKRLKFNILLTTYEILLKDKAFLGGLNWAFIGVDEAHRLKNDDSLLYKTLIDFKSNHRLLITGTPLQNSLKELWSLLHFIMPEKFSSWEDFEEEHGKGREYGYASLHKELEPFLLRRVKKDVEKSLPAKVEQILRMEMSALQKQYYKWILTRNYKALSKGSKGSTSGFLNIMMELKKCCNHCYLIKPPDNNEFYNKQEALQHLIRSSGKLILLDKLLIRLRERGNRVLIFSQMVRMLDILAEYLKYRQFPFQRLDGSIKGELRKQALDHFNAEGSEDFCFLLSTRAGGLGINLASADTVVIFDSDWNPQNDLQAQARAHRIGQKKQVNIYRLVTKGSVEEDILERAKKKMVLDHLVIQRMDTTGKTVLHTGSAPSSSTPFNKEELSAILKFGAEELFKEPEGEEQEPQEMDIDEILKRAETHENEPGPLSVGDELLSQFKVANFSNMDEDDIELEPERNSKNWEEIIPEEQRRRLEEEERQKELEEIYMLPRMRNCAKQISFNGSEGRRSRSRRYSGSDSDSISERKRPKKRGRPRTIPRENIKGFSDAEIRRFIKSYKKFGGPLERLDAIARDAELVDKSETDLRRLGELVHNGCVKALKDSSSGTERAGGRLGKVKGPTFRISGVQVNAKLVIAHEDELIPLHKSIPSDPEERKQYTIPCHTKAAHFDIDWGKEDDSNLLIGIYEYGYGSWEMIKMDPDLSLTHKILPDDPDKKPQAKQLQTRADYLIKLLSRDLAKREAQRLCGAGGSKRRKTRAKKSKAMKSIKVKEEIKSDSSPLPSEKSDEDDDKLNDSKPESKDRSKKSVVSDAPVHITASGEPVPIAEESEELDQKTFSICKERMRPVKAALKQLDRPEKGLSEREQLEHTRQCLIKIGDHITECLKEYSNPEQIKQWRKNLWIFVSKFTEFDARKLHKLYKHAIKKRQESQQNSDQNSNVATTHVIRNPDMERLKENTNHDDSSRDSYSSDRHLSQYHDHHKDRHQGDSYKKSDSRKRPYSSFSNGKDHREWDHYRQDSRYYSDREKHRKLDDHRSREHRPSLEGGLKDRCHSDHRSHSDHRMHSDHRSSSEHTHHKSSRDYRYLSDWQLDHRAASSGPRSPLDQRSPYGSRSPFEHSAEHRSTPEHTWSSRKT
UniProt P11103: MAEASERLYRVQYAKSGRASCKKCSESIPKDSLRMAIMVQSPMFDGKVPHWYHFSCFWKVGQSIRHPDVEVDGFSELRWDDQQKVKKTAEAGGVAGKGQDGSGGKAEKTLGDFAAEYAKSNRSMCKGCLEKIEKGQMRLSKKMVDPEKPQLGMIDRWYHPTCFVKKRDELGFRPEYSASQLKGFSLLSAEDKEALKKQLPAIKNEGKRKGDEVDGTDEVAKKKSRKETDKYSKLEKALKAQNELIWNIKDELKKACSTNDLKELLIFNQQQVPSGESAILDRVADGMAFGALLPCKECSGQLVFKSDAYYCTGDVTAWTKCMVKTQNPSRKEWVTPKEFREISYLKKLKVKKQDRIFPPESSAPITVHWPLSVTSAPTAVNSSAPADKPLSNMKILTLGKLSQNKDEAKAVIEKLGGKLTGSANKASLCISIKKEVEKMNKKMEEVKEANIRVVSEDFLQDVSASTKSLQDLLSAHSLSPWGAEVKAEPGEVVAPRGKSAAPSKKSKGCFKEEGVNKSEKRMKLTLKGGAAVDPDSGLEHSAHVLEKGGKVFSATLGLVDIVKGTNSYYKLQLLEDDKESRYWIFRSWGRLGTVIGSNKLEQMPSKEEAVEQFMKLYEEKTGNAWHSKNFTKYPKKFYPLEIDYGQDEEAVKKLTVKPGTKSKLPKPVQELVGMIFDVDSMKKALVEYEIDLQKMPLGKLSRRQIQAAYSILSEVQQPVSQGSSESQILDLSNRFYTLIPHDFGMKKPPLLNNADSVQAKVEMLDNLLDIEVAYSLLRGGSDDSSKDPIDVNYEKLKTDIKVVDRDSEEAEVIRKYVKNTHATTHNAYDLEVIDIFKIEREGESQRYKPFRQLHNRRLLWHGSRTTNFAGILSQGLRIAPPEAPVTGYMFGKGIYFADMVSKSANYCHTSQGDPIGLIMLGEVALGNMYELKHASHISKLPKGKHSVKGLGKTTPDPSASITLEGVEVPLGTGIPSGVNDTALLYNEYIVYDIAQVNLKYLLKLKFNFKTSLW
UniProt O88554: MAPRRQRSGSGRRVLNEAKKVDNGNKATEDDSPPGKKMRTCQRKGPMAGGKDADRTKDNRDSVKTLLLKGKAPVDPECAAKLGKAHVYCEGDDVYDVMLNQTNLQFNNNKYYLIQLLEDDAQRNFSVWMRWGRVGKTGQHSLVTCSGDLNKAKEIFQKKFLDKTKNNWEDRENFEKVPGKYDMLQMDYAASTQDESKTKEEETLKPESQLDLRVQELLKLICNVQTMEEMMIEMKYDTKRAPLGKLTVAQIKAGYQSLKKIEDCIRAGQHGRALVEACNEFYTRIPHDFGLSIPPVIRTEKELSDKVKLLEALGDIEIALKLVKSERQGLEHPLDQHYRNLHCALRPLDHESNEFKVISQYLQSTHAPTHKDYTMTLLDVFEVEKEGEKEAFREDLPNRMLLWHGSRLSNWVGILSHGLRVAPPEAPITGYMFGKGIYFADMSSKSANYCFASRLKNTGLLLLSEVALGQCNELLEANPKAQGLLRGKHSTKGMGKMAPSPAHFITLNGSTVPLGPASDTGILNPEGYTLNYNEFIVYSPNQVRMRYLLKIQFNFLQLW
UniProt P70388: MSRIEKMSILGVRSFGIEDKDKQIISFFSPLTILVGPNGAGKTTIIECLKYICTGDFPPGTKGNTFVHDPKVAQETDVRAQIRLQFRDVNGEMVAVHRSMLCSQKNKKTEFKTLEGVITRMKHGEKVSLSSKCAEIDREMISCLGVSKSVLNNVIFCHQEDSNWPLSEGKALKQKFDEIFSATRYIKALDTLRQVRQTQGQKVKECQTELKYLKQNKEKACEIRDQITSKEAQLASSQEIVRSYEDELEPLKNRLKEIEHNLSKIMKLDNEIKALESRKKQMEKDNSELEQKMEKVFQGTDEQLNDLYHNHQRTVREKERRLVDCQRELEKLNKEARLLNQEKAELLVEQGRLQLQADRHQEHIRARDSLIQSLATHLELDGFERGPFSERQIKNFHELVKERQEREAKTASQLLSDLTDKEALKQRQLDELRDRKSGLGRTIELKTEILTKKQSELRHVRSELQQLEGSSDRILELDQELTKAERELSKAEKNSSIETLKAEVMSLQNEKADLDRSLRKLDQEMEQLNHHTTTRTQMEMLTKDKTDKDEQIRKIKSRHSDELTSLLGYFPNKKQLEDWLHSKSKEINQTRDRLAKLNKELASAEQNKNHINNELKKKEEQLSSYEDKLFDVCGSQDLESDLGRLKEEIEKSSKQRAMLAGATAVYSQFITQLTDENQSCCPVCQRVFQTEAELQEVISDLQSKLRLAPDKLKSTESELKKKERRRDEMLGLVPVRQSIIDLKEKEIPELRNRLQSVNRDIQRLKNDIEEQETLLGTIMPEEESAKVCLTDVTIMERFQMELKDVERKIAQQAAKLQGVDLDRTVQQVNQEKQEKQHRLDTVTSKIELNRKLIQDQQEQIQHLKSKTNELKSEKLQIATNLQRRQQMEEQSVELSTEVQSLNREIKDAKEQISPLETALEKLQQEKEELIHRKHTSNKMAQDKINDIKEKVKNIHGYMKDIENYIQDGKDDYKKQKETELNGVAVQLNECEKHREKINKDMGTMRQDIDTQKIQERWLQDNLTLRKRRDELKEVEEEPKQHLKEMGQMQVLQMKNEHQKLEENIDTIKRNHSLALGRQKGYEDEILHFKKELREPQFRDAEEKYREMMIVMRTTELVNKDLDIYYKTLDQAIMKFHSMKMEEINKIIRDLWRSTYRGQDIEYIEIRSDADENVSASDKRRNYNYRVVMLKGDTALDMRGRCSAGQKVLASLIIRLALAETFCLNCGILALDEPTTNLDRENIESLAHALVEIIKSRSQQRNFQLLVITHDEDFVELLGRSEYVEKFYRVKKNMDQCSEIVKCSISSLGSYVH
UniProt Q64511: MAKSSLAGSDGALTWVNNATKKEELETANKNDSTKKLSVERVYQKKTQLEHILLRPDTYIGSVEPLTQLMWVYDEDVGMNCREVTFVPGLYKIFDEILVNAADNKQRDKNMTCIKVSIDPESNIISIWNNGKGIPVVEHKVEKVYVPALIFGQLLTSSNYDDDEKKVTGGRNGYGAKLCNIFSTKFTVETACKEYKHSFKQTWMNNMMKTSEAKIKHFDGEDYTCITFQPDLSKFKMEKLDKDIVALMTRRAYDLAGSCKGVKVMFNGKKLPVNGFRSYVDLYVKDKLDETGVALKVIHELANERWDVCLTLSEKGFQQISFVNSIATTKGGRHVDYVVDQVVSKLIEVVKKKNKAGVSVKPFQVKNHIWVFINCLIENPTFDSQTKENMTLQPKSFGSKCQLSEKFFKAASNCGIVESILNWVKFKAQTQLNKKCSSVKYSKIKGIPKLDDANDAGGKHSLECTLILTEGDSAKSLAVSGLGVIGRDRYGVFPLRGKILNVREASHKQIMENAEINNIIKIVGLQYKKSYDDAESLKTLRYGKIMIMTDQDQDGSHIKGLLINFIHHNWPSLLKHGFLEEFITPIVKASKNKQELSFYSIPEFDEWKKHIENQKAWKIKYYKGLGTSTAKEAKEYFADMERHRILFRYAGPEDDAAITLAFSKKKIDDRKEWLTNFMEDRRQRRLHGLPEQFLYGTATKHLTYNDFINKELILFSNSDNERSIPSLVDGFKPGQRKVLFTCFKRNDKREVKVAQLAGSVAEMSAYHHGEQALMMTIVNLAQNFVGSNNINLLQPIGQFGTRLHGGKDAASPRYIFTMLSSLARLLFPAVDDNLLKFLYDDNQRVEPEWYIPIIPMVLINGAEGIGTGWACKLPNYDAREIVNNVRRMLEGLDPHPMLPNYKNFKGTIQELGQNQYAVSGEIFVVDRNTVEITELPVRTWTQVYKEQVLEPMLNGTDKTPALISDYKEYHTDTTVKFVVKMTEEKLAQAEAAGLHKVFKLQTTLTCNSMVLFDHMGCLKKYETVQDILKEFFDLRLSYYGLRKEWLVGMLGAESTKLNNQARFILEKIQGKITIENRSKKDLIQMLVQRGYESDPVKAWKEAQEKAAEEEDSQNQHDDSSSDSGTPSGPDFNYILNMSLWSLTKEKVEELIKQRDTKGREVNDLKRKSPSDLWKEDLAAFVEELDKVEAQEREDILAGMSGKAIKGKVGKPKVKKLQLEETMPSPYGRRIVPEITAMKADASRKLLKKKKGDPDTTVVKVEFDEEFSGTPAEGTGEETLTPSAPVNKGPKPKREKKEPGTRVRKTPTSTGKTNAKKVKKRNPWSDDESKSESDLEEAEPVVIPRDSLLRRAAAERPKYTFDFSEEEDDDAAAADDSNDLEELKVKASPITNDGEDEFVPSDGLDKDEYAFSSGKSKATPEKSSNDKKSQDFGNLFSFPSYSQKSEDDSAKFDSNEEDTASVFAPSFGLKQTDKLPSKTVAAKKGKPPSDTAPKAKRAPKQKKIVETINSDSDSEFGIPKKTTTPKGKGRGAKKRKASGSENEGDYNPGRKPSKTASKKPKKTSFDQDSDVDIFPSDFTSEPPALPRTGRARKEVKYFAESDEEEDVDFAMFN

In article doi:10.1101/659995 one finds binding data, which are given here for six molecules.

No constants are given. Whether binding was seen depends on the method and setting. Binding seen in cells or lysates may run through a third protein. A yes stands for co-enrichment or nearness to the bait. Other partners may have been found.

With “Parp1 (from UniProt P11103 1-1013) (enzyme)”, the binding entry is on record as “binds”. For “Parp2 (from UniProt O88554 1-559) (enzyme)”, the binding result is listed as “binds”. In the case of Rad50 (from UniProt P70388 1-1312) it was “binds”; in that of “histone variant H2A.X (from UniProt P27661 1-143)”, “binds”. In the case of “topoisomerase 2β (Top2β) (from UniProt Q64511 1-1612) (enzyme)” it was “binds”.

B1: Mre11 (protein, UniProt Q61216 1-706)
chain: MSPTDPLDDEDTFKILVATDIHLGFMEKDAVRGNDTFVTFDEILRLALENEVDFILLGGDLFHENKPSRKTLHSCLELLRKYCMGDRPVQFEVISDQSVNFGFSKFPWVNYQDGNLNISIPVFSIHGNHDDPTGADALCALDVLSCAGFVNHFGRSMSVEKVDISPVLLQKGSTKLALYGLGSIPDERLYRMFVNKKVTMLRPKEDENSWFNLFVIHQNRSKHGNTNFIPEQFLDDFIDLVIWGHEHECKIGPIKNEQQLFYVSQPGSSVVTSLSPGEAVKKHVGLLRIKGRKMNMQKLPLRTVRRFFIEDVVLANHPNLFNPDNPKVTQAIQSFCLEKIEEMLDSAERERLGNPQQPGKPLIRLRVDYSGGFEPFNVLRFSQKFVDRVANPKDVIHFFRHREQKGKTGEEINFGMLITKPASEGATLRVEDLVKQYFQTAEKNVQLSLLTERGMGEAVQEFVDKEEKDAIEELVKYQLEKTQRFLKERHIDALEDKIDEEVRRFRESRQRNTNEEDDEVREAMSRARALRSQSETSTSAFSAEDLSFDTSEQTANDSDDSLSAVPSRGRGRGRGRRGARGQSSAPRGGSQRGRDTGLEITTRGRSSKATSSTSRNMSIIDAFRSTRQQPSRNVAPKNYSETIEVDDSDEDDIFPTNSRADQRWSGTTSSKRMSQSQTAKGVDFESDEDDDDDPFMSSSCPRRNRR
On to B1, for which the binding result is reported as “binds”.
